Measurements reported in PubChem BioAssay AID743121 (NCATS, 2013).
Test: 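Genes whose silencing strengthens cell killing by camptothecin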 (primary screen). System: MDA-MB-231 cells, a human breast cancer line. Knock-down reagent: single siRNA against human genes, 20 nM siRNA (0.8 pmol per well). Time to read-out: 120 h (drug added 48 h after transfection, read 72 h later). Treatment: camptothecin 20 nM (about EC30) for 72 h; vehicle 0.1% DMSO in parallel plates. Measurement: 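CellTiter-Glo ATP signal, scaled to control siRNA as percent viability; sensitisation given as log2 of untreated divided by camptothecin-treated viability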. Scale: log2 vehicle/camptothecin viability: higher = stronger sensitisation to camptothecin; viability with camptothecin and viability without drug: higher = more viable cells. Call rule: 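Active genes have an RSA gene-level p-value below 0.001, computed from the ratios of their separate siRNAs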.
In all, the deposit lists about 26,000 reagents; this is a random part of them. 167 of all reagents (0.63%) were called active. 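Calls are per gene from RSA p-values that are not deposited; an individual active-marked siRNA can sensitise only weakly.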 A number with no mark means an inactive call. The numbers tell different reagents against one gene apart.

| Gene | siRNA no. | log2 vehicle/camptothecin viability | viability with camptothecin (% of control) | viability without drug (% of control) |
| --- | --- | --- | --- | --- |
| TUSC3 (tumor suppressor candidate 3) | 1 | -0.184 | 105 | 92.2 |
| TUSC3 (tumor suppressor candidate 3) | 2 | -0.543 | 105 | 72 |
| TUSC3 (tumor suppressor candidate 3) | 3 | -0.235 | 96.6 | 82.1 |
| TUSC3 (tumor suppressor candidate 3) | 4 | -0.198 | 84.1 | 73.3 |
| SMAD6 (SMAD family member 6) | 1 | 0.035 | 53 | 54.3 |
| SMAD6 (SMAD family member 6) | 2 | 0.0209 | 90.5 | 91.8 |
| SMAD6 (SMAD family member 6) | 3 | -0.187 | 115 | 101 |
| SMAD6 (SMAD family member 6) | 4 | -0.201 | 80.6 | 70.2 |
| ARSA (arylsulfatase A) | 1 | -0.24 | 86.9 | 73.6 |
| ARSA (arylsulfatase A) | 2 | -0.232 | 104 | 88.3 |
| ARSA (arylsulfatase A) | 3 | 0.352 | 50.9 | 65 |
| ARSA (arylsulfatase A) | 4 | 0.327 | 49.9 | 62.5 |
| PRKRA | 1 | -0.476 | 79.8 | 57.3 |
| PRKRA | 2 | -0.348 | 102 | 79.8 |
| PRKRA | 3 | 0.162 | 84.2 | 94.2 |
| PRKRA | 4 | 0.379 | 42.3 | 55 |
| ABCC9 (ATP binding cassette subfamily C member 9) | 1 | 0.0729 | 96.4 | 101 |
| ABCC9 (ATP binding cassette subfamily C member 9) | 2 | 0.17 | 25.2 | 28.4 |
| ABCC9 (ATP binding cassette subfamily C member 9) | 3 | -0.381 | 64.9 | 49.9 |
| ABCC9 (ATP binding cassette subfamily C member 9) | 4 | -0.133 | 130 | 118 |
| BAG1 (BAG cochaperone 1) | 1 | -0.315 | 74.3 | 59.8 |
| BAG1 (BAG cochaperone 1) | 2 | -0.0249 | 48.6 | 47.8 |
| BAG1 (BAG cochaperone 1) | 3 | 0.347 | 76.7 | 97.5 |
| BAG1 (BAG cochaperone 1) | 4 | 0.623 | 26.1 | 40.2 |
| ADCY5 (adenylate cyclase 5) | 1 | -0.521 | 48.3 | 33.7 |
| ADCY5 (adenylate cyclase 5) | 2 | 0.089 | 93.4 | 99.4 |
| ADCY5 (adenylate cyclase 5) | 3 | 0.101 | 74.2 | 79.6 |
| ADCY5 (adenylate cyclase 5) | 4 | -0.237 | 97.8 | 83 |
| CTNND1 (catenin delta 1) | 1 | -0.206 | 75.5 | 65.5 |
| CTNND1 (catenin delta 1) | 2 | -0.297 | 62.6 | 50.9 |
| CTNND1 (catenin delta 1) | 3 | -0.283 | 45.8 | 37.7 |
| CTNND1 (catenin delta 1) | 4 | -0.284 | 106 | 87.5 |
| TP53BP2 (tumor protein p53 binding protein 2) | 1 | 0.369 | 66.9 | 86.4 |
| TP53BP2 (tumor protein p53 binding protein 2) | 2 | -0.387 | 82.9 | 63.4 |
| TP53BP2 (tumor protein p53 binding protein 2) | 3 | -0.406 | 70 | 52.8 |
| TP53BP2 (tumor protein p53 binding protein 2) | 4 | -0.202 | 89.7 | 78 |
| ITGAX (integrin subunit alpha X) | 1 | -0.28 | 67.4 | 55.5 |
| ITGAX (integrin subunit alpha X) | 2 | -0.0287 | 90.2 | 88.4 |
| ITGAX (integrin subunit alpha X) | 3 | -0.356 | 49.9 | 39 |
| PARP2 (poly(ADP-ribose) polymerase 2) | 1 | -0.338 | 97.3 | 77 |
| PARP2 (poly(ADP-ribose) polymerase 2) | 2 | -0.234 | 101 | 85.6 |
| PARP2 (poly(ADP-ribose) polymerase 2) | 3 | 0.139 | 95.3 | 105 |
| PARP2 (poly(ADP-ribose) polymerase 2) | 4 | -0.268 | 74.5 | 61.8 |
| SET (SET nuclear proto-oncogene) | 1 | 0.629 | 28.2 | 43.6 |
| SET (SET nuclear proto-oncogene) | 2 | -0.521 | 81.8 | 57 |
| SET (SET nuclear proto-oncogene) | 3 | -0.00715 | 78.1 | 77.7 |
| SET (SET nuclear proto-oncogene) | 4 | 0.0558 | 59.7 | 62 |
| CARD6 (caspase recruitment domain family member 6) | 1 | 0.808 | 36 | 63 |
| CARD6 (caspase recruitment domain family member 6) | 2 | 0.0552 | 59.6 | 62 |
| CARD6 (caspase recruitment domain family member 6) | 3 | -0.38 | 40.4 | 31 |
| CARD6 (caspase recruitment domain family member 6) | 4 | 0.246 | 59.7 | 70.8 |
| RNF146 (ring finger protein 146) | 1 | -0.537 | 98.7 | 68 |
| RNF146 (ring finger protein 146) | 2 | 0.658 | 48.9 | 77.1 |
| RNF146 (ring finger protein 146) | 3 | -0.119 | 108 | 99.7 |
| HTR1E (5-hydroxytryptamine receptor 1E) | 1 | 0.241 | 79.1 | 93.5 |
| HTR1E (5-hydroxytryptamine receptor 1E) | 2 | 1.05 | 18.6 | 38.4 |
| HTR1E (5-hydroxytryptamine receptor 1E) | 3 | -0.368 | 97.7 | 75.7 |
| SERPINB2 (serpin family B member 2) | 1 | -0.324 | 68.4 | 54.6 |
| SERPINB2 (serpin family B member 2) | 2 | -0.294 | 56.2 | 45.9 |
| SERPINB2 (serpin family B member 2) | 3 | 0.0794 | 47.2 | 49.9 |
| SERPINB2 (serpin family B member 2) | 4 | -0.0907 | 66.8 | 62.7 |
| CCL2 (C-C motif chemokine ligand 2) | 1 | -0.498 | 82.2 | 58.2 |
| CCL2 (C-C motif chemokine ligand 2) | 2 | 0.442 | 59.3 | 80.5 |
| CCL2 (C-C motif chemokine ligand 2) | 3 | 0.0812 | 74.9 | 79.2 |
| CCL2 (C-C motif chemokine ligand 2) | 4 | 0.0178 | 64.9 | 65.7 |
| NEK3 (NIMA related kinase 3) | 1 | -0.632 | 119 | 77 |
| NEK3 (NIMA related kinase 3) | 2 | -0.369 | 98.5 | 76.3 |
| NEK3 (NIMA related kinase 3) | 3 | -0.223 | 32.4 | 27.8 |
| NEK3 (NIMA related kinase 3) | 4 | -0.267 | 54.3 | 45.2 |
